Laboratory results: patent publication US20120283193A1, “MANIPULATION OF BRAIN IN A CIRCUIT-SPECIFIC MANNER” (priority 2009, published 2012)

Tested on: Xenopus larvae
Test: Skin pigmentation adaptation to illumination/background in larvae
Type: in vivo
Settings: D2 receptor agonist
Method: Illumination experiments. The optimal condition for altering skin pigmentation and numbers of TH neurons were determined by raising larvae under two illumination conditions. In the first, larvae were placed on black, grey or white backgrounds (corresponding to N2.25, N7.25 or N9.5 on the Munsell neutral value scale of a monochromatic colour wheel) with constant illumination (331 lux (lx)). In the second, larvae on a white, grey or black background were exposed to constant illumination (6,560 lx, measured with a light meter (Sper Scientific)-equivalent to shady illumination on a sunny day), or to constant dark or to 12 h light/12 h dark. […]. Subsequently, when testing the effect of light on pigmentation or the numbers of TH neurons, animals were usually raised in the dark (stages 35-42) and exposed (typically for 2 h at stage 42) to these optimal conditions. For some tests of the functional significance of newly TH neurons, animals were raised under different light/background conditions and a conditioning step of 30 min light/white background exposure was imposed to achieve similar levels of skin pigmentation before comparing light or dark adaptation between these groups.
Neuropharmacology. […] For selective ablation of VSCDA neurons, MPTP was bath-applied in the dark to larvae for 8 h at stage 41. 100 mM deprenyl (Sigma) was bath-applied to inhibit monoamine oxidase.

Compound: CCCN1CCC[C@@H]2Cc3n[nH]cc3C[C@H]21.Cl [guinpirole hydrochloride]
- blanching effect on dark-adapted larvae remaining in the dark after bilateral eye enucleation: persisted to the same extent
